These results are taken from publication PMC3320541.

These are yes or no findings as the source states them, for the method shown. In cells and extracts the contact can be indirect. Binding can be weak; no strength is given. Tags and fused reporters may be left off the sequences shown.

This assay deals with HopZ2^C/A::nYFP (and HopZ2^C/A::cYFP in the reciprocal combination) (Pseudomonas syringae). Put plainly: split reporter; BiFC with nYFP and cYFP fusions (both combinations) co-expressed by Agrobacterium infiltration in N. benthamiana leaves; 20 uM dexamethasone; confocal imaging 72-96 hours after induction.

B1: MLO2^Δ1-280::cYFP (and MLO2^Δ1-280::nYFP in the reciprocal combination) (domain or fragment, UniProt Q9SXB6 281-573)
chain: QRSLEKDFKTVVEISPVIWFVAVLFLLTNSYGLRSYLWLPFIPLVVILIVGTKLEVIITKLGLRIQEKGDVVRGAPVVQPGDDLFWFGKPRFILFLIHLVLFTNAFQLAFFAWSTYEFNLNNCFHESTADVVIRLVVGAVVQILCSYVTLPLYALVTQMGSKMKPTVFNDRVATALKKWHHTAKNETKHGRHSGSNTPFSSRPTTPTHGSSPIHLLHNFNNRSVENYPSSPSPRYSGHGHHEHQFWDPESQHQEAETSTHHSLAHESSEPVLASVELPPIRTSKSLRDFSFKK
B1: the binding entry is “binds”.
